Test results from publication doi:10.1101/424556.
Results are given in words; binding and its absence hold for the method and conditions named. In cells and extracts the contact can be indirect. Some entries that bind do so weakly or less than the wild type.

Sequences of proteins named here, by UniProt entry; tags and fusion partners are left off. A change or cut given only in a name is not applied to a line headed by its entry.
UniProt O15516: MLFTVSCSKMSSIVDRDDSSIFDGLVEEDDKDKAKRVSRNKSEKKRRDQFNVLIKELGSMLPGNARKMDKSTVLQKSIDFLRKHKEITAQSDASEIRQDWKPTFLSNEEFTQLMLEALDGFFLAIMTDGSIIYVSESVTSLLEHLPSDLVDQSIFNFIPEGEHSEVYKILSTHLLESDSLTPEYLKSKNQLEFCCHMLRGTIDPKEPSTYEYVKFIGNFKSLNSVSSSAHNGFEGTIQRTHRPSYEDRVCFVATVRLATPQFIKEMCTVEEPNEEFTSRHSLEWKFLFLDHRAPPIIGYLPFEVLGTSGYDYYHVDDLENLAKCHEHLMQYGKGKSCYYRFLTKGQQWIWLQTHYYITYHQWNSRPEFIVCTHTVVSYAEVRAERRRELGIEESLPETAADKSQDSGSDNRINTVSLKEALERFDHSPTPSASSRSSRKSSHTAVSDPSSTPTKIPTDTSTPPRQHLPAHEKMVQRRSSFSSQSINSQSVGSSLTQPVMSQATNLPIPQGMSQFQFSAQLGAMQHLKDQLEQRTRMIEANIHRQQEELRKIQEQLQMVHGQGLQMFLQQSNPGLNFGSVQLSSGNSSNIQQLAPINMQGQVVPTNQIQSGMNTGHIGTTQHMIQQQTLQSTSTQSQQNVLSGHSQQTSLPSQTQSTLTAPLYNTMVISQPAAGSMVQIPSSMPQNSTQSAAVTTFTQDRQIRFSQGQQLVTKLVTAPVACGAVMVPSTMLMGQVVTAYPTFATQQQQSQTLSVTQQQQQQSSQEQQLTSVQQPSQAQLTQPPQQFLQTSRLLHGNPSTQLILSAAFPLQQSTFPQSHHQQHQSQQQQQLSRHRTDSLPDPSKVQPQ
UniProt O00327: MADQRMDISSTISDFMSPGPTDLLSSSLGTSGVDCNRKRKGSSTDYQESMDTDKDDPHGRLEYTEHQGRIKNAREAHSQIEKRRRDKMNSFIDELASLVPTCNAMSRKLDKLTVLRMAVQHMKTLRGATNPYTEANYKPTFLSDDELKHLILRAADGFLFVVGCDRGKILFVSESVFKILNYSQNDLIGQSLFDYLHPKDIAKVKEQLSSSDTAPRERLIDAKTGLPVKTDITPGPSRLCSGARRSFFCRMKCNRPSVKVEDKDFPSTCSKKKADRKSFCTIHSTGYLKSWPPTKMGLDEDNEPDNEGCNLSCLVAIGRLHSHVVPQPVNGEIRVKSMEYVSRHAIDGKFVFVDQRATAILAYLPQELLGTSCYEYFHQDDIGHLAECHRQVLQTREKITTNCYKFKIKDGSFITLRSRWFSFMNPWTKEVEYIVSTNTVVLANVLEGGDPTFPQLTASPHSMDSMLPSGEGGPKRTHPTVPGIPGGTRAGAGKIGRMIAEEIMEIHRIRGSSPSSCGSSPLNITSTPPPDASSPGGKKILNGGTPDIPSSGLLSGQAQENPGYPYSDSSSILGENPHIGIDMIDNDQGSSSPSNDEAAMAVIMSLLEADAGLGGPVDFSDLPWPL

Key:
Experiment in all cases: co-IP
[1] = biological target: CLOCK:BMAL1 heterodimer (UniProt O15516)
[2] = biological target: BMAL1, endogenous in HepG2 (human (endogenous in HepG2)) (UniProt O00327)
[3] = biological target: T1, CRY1, endogenous in HepG2 (human (endogenous in HepG2)) (UniProt Q16526)
T1 sequence: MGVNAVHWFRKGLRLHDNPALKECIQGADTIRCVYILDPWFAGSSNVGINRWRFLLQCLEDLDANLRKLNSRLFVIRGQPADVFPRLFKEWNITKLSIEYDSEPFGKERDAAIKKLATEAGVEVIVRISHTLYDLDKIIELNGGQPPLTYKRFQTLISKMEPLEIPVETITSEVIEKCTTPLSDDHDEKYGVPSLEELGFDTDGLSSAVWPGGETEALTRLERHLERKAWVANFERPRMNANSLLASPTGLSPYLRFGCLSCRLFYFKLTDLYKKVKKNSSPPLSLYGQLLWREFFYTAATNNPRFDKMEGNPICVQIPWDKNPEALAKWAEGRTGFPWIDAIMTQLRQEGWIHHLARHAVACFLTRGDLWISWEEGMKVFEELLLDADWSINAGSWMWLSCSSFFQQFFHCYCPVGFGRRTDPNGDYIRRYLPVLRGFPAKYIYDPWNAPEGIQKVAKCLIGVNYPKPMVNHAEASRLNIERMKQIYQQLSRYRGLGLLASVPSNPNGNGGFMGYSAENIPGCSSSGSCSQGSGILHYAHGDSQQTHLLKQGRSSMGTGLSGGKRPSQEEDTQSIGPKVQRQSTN

Binder | binding [1] | binding [2] | binding [3]
HNF4A (hepatocyte nuclear factor 4A), transiently expressed (protein, UniProt P41235 1-474) MRLSKTLVDMDMADYSAALDPAYTTLEFENVQVLTMGNDTSPSEGTNLNAPNSLGVSALCAICGDRATGKHYGASSCDGCKGFFRRSVRKNHMYSCRFSRQCVVDKDKRNQCRYCRLKKCFRAGMKKEAVQNERDRISTRRSSYEDSSLPSINALLQAEVLSRQITSPVSGINGDIRAKKIASIADVCESMKEQLLVLVEWAKYIPAFCELPLDDQVALLRAHAGEHLLLGATKRSMVFKDVLLLGNDYIVPRHCPELAEMSRVSIRILDELVLPFQELQIDDNEYAYLKAIIFFDPDAKGLSDPGKIKRLRSQVQVSLEDYINDRQYDSRGRFGELLLLLPTLQSITWQMIEQIQFIKLFGMAKIDNLLQEMLLGGSPSDAPHAHHPLHPHLMQEHMGTNVIVANTMPTHLSNGQMCEWPRPRGQAATPETPQPSPPGGSGSEPYKLLPGAVATIVKPLSAIPQPTITKQEVI | binds | – | –
HNF4A, endogenous in HepG2 (protein, UniProt P41235 1-474) MRLSKTLVDMDMADYSAALDPAYTTLEFENVQVLTMGNDTSPSEGTNLNAPNSLGVSALCAICGDRATGKHYGASSCDGCKGFFRRSVRKNHMYSCRFSRQCVVDKDKRNQCRYCRLKKCFRAGMKKEAVQNERDRISTRRSSYEDSSLPSINALLQAEVLSRQITSPVSGINGDIRAKKIASIADVCESMKEQLLVLVEWAKYIPAFCELPLDDQVALLRAHAGEHLLLGATKRSMVFKDVLLLGNDYIVPRHCPELAEMSRVSIRILDELVLPFQELQIDDNEYAYLKAIIFFDPDAKGLSDPGKIKRLRSQVQVSLEDYINDRQYDSRGRFGELLLLLPTLQSITWQMIEQIQFIKLFGMAKIDNLLQEMLLGGSPSDAPHAHHPLHPHLMQEHMGTNVIVANTMPTHLSNGQMCEWPRPRGQAATPETPQPSPPGGSGSEPYKLLPGAVATIVKPLSAIPQPTITKQEVI | – | binds | binds
